Laboratory results reported in the supplement of paper PMC6411743.
± gives the standard deviation of the averaged measurements. The list shows a part of the results.

Amino acid sequences for entries named in this document (tags omitted). A change or cut given only in a name is not applied to a line headed by its entry.
UniProt Q16566: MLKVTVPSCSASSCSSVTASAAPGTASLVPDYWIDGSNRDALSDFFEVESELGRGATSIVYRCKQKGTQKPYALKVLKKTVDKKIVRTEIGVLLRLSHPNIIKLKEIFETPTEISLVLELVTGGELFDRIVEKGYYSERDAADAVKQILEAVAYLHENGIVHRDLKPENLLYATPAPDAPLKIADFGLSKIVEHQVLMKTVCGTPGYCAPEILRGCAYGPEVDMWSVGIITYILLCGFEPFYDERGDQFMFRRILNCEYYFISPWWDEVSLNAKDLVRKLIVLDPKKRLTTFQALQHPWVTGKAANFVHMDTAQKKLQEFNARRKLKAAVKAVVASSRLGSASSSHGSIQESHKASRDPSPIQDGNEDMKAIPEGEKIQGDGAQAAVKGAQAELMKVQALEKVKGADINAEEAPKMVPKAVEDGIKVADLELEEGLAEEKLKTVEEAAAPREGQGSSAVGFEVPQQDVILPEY
UniProt Q14690: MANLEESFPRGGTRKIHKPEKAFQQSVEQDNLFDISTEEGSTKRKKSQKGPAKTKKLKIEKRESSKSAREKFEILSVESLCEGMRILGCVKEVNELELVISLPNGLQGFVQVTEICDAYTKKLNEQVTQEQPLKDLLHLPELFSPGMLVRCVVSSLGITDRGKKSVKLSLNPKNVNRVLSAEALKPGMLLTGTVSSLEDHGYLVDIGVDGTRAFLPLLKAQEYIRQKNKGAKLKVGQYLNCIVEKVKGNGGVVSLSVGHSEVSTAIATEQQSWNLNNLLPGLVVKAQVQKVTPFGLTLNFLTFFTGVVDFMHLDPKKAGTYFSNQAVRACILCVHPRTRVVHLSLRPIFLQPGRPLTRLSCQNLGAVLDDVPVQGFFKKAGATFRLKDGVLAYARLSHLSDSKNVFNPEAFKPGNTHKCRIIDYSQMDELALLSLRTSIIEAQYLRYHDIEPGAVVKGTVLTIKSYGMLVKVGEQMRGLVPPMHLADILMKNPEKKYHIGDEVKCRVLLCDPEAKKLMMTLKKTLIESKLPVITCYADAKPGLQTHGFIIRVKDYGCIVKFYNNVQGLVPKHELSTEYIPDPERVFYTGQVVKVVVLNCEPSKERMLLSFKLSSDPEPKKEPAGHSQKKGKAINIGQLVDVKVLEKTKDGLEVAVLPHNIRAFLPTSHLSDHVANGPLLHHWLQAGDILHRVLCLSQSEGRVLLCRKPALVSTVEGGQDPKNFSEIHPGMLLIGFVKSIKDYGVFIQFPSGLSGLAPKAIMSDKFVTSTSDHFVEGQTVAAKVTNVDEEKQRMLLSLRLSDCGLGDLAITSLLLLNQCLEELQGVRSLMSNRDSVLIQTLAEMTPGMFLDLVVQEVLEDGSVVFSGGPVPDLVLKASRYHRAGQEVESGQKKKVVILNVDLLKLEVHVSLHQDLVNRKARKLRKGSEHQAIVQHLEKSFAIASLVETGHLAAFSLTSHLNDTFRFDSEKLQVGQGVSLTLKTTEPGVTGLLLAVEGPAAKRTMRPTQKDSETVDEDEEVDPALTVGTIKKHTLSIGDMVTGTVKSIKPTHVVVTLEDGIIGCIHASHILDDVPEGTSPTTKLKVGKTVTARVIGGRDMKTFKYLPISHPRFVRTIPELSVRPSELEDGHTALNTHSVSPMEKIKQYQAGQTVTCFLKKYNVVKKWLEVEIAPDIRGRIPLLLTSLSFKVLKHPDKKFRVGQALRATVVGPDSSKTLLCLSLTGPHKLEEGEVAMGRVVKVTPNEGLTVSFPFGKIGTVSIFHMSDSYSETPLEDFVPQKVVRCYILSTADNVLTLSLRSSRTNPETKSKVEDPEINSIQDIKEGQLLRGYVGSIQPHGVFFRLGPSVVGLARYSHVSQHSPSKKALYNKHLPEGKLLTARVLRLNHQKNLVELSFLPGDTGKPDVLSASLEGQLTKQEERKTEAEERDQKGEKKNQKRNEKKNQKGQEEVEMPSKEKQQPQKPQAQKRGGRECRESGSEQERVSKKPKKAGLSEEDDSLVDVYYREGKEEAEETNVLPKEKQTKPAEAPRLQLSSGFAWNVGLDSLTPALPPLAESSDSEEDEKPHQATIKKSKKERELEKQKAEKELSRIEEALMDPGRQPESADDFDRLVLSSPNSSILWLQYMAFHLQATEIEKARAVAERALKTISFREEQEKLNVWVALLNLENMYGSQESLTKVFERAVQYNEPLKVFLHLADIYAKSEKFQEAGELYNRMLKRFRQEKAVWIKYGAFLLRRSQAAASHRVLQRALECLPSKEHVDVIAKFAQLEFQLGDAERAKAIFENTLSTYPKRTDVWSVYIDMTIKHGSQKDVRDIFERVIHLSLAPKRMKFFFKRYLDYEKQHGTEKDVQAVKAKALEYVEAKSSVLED
UniProt Q5JVF3: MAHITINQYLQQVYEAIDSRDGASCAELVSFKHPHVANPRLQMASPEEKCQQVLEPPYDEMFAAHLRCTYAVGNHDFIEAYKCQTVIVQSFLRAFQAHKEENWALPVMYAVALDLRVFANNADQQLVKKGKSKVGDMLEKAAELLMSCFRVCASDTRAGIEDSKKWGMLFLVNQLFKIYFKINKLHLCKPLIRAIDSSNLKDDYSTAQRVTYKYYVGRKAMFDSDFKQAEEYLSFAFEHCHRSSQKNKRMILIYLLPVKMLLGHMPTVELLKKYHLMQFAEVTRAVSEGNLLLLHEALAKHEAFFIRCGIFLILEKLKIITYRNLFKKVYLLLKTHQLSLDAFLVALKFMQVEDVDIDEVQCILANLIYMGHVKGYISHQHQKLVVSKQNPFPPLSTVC
UniProt Q15014, whole entry: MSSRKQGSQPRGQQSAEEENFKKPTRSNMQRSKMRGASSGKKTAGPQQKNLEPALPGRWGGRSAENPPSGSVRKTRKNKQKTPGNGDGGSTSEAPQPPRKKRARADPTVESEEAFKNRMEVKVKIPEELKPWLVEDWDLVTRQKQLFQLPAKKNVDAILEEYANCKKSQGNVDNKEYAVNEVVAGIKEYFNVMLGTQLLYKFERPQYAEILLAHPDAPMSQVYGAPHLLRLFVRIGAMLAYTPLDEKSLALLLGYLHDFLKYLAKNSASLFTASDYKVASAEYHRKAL
UniProt Q53HL2: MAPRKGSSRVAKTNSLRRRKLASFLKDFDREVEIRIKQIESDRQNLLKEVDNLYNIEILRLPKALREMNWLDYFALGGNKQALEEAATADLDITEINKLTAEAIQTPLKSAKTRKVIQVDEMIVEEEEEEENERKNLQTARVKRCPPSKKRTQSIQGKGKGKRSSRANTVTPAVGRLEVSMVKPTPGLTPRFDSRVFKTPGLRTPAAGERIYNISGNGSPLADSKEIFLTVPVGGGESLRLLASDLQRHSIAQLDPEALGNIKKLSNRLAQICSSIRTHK
UniProt Q53T59: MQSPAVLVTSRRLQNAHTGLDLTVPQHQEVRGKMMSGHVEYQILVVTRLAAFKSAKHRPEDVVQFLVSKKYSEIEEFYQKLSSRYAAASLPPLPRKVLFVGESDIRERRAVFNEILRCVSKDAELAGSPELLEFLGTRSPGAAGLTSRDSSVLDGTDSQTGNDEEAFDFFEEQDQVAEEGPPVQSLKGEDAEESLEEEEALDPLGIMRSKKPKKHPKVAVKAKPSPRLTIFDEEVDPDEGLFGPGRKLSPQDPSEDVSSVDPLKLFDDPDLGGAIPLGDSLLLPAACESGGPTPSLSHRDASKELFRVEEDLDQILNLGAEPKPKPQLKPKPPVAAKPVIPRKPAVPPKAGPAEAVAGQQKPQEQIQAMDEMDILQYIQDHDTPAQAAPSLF
UniProt Q5GLZ8: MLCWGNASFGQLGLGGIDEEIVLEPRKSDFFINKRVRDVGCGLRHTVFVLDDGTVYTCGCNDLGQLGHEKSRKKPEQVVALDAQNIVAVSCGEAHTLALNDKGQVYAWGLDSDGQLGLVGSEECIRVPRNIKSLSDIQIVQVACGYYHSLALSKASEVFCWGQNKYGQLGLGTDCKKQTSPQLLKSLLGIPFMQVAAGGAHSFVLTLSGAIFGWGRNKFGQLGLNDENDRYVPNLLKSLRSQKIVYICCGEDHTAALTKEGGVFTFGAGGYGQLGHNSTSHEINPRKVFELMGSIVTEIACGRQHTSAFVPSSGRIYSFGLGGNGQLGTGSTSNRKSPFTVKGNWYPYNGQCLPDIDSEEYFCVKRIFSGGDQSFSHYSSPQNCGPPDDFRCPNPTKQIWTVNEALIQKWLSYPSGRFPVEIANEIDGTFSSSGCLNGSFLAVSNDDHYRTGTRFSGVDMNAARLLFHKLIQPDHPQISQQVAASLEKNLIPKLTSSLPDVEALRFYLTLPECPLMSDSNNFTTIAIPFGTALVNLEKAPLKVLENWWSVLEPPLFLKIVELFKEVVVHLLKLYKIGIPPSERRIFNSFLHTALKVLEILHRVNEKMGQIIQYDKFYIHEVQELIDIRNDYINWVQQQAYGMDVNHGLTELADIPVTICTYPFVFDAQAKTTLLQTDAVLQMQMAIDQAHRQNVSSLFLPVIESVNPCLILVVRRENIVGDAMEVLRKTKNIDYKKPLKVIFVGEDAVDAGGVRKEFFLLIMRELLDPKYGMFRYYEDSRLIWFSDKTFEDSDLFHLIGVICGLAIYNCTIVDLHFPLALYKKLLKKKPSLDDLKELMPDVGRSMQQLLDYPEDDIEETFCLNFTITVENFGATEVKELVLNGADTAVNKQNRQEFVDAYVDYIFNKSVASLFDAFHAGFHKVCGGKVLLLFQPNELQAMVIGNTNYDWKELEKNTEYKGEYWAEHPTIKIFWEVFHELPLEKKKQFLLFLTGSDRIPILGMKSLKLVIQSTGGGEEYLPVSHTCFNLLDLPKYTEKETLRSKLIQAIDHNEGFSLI
UniProt Q49A26: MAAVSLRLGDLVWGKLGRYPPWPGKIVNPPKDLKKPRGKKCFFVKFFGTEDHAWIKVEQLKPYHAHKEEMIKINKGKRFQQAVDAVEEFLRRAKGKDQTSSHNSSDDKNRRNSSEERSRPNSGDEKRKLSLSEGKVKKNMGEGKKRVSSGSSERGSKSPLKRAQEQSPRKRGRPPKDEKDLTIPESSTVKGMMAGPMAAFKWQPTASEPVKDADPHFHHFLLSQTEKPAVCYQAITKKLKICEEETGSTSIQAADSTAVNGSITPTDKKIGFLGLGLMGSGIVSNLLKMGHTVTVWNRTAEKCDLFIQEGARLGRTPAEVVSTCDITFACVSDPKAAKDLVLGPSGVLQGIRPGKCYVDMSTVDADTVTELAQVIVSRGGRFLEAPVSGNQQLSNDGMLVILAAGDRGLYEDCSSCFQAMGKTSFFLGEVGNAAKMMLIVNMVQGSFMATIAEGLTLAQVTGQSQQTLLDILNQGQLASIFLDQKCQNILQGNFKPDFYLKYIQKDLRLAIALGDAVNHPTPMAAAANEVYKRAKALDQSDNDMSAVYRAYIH
UniProt Q14807: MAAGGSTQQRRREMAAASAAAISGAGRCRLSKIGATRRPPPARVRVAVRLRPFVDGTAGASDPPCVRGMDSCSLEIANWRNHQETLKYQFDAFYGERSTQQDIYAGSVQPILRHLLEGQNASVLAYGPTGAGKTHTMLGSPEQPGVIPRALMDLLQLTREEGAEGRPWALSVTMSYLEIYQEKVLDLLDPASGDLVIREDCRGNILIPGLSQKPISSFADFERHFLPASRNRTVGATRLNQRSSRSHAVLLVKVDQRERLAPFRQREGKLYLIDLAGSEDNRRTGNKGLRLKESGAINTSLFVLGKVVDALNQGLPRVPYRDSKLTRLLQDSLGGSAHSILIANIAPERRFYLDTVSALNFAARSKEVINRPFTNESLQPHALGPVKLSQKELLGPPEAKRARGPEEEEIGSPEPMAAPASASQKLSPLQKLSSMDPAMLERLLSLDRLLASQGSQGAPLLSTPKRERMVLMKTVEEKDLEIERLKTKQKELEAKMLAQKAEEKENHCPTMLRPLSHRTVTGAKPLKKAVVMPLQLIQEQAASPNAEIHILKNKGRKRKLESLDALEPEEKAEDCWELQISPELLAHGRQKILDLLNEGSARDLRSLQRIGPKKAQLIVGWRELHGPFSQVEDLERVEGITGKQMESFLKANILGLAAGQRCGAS
UniProt Q53FA7: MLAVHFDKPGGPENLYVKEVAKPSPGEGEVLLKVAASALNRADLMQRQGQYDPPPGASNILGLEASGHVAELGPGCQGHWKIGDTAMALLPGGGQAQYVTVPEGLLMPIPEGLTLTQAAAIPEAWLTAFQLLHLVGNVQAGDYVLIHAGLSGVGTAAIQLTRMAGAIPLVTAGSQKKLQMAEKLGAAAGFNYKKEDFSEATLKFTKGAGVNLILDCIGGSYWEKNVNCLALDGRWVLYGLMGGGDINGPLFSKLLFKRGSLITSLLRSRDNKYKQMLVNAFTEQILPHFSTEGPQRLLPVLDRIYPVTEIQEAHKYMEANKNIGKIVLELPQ

Compound: Nc1nc2c(ncn2[C@@H]2O[C@H](COP(=O)(O)OP(=O)(O)OP(=O)(O)O)[C@@H](O)[C@H]2O)c(=O)[nH]1 [guanosine triphosphate]
Assay: NP40-soluble protein abundance relative to vehicle (solubility fold change) (ratio); higher = more soluble protein in presence of GTP
How it was run: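 Each value is a fold change relative to the detergent-processed vehicle, calculated per replicate from vsn-normalised intensities. Jurkat crude lysate received eight concentrations (0.1 to 10 mM) for 10 min at room temperature and 3 min at 37 °C, then was solubilised in 0.8% NP40 with benzonase (60 min, 4 °C). The ultracentrifuged supernatant was TMT-labelled and run by LC-MS/MS in three independent experiments.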

Target	NP40-soluble protein abundance (concentration: 0.1mM)	NP40-soluble protein abundance (concentration: 0.5mM)	NP40-soluble protein abundance (concentration: 1mM)	NP40-soluble protein abundance (concentration: 2mM)	NP40-soluble protein abundance (concentration: 4mM)	NP40-soluble protein abundance (concentration: 6mM)	NP40-soluble protein abundance (concentration: 8mM)	NP40-soluble protein abundance (concentration: 10mM)
MIA3 (UniProt Q5JRA6)	0.965 ± 0.061	0.948 ± 0.087	0.998 ± 0.071	0.946 ± 0.11	0.953 ± 0.08	0.968 ± 0.13	0.985 ± 0.053	1.01 ± 0.067
KIF14 (UniProt Q15058)	1.05 ± 0.012	1.14 ± 0.046	1.04 ± 0.059	1.11 ± 0.18	1.24 ± 0.12	1.22 ± 0.15	1.17 ± 0.15	1.13 ± 0.075
UniProt Q5T0N5-3|Q5T0N5-4	1.03 ± 0.053	0.941 ± 0.028	1.01 ± 0.074	0.919 ± 0.023	0.998 ± 0.047	0.948 ± 0.05	1.01 ± 0.051	0.938 ± 0.048
CAMK4 (UniProt Q16566)	0.981 ± 0.064	0.955 ± 0.059	0.96 ± 0.08	0.907 ± 0.081	0.929 ± 0.1	0.898 ± 0.095	0.934 ± 0.091	0.894 ± 0.077
ARHGAP15 (UniProt Q53QZ3)	1 ± 0.052	1.01 ± 0.079	0.97 ± 0.037	0.964 ± 0.029	0.983 ± 0.018	0.955 ± 0.034	0.956 ± 0.062	0.952 ± 0.027
PDCD11 (UniProt Q14690)	1.08 ± 0.071	1.03 ± 0.058	1.05 ± 0.021	1.12 ± 0.052	1.26 ± 0.068	1.35 ± 0.058	1.53 ± 0.093	1.63 ± 0.1
UniProt Q15056 and related entries	0.879 ± 0.047	0.887 ± 0.077	0.924 ± 0.06	0.909 ± 0.091	0.876 ± 0.081	0.894 ± 0.076	0.892 ± 0.078	0.944 ± 0.064
UniProt Q5JVF3 and related entries	1.04 ± 0.047	1.04 ± 0.046	0.892 ± 0.019	0.916 ± 0.061	0.901 ± 0.059	0.939 ± 0.03	0.9 ± 0.023	0.902 ± 0.052
RARS2 (UniProt Q5T160)	1.02 ± 0.033	1.06 ± 0.037	0.974 ± 0.024	0.998 ± 0.042	1.017 ± 0.0049	0.934 ± 0.027	0.917 ± 0.026	0.945 ± 0.043
Q5T063 and related entries (UniProt Q9NZJ6)	0.965 ± 0.042	0.992 ± 0.088	0.945 ± 0.049	0.946 ± 0.071	0.915 ± 0.1	0.897 ± 0.066	0.917 ± 0.013	0.889 ± 0.037
MED1 (UniProt Q15648)	1.01 ± 0.064	1.04 ± 0.022	1.08 ± 0.031	1.09 ± 0.036	1.08 ± 0.045	1.12 ± 0.061	1.12 ± 0.093	1.13 ± 0.097
MORF4L2 (UniProt Q15014)	0.987 ± 0.068	0.935 ± 0.12	1.12 ± 0.053	1.1 ± 0.11	1.15 ± 0.093	1.09 ± 0.12	1.16 ± 0.078	1.17 ± 0.062
CDCA8 (UniProt Q53HL2)	1.03 ± 0.14	0.969 ± 0.047	1.06 ± 0.17	1.19 ± 0.23	1.17 ± 0.2	1.22 ± 0.23	1.19 ± 0.064	1.53 ± 0.22
UniProt Q5TA45 and related entries	1.08 ± 0.11	1.07 ± 0.15	1.03 ± 0.15	1.11 ± 0.2	1.16 ± 0.21	1.13 ± 0.18	1.05 ± 0.11	1.06 ± 0.092
UniProt Q16512 and related entries	0.963 ± 0.026	0.994 ± 0.022	0.937 ± 0.033	0.93 ± 0.03	0.906 ± 0.029	0.914 ± 0.03	0.885 ± 0.041	0.876 ± 0.041
UniProt Q2PPJ7 and related entries	1.15 ± 0.23	1.28 ± 0.32	1.56 ± 0.1	1.16 ± 0.64	1.12 ± 0.38	1.38 ± 0.45	1.35 ± 0.14	1.06 ± 0.14
UniProt Q32P28 and related entries	1.01 ± 0.022	1.09 ± 0.025	1.09 ± 0.036	1.14 ± 0.053	1.2 ± 0.04	1.15 ± 0.013	1.21 ± 0.033	1.21 ± 0.032
HS1BP3 (UniProt Q53T59)	1.04 ± 0.13	1.03 ± 0.12	1.03 ± 0.03	1.06 ± 0.21	0.954 ± 0.15	0.995 ± 0.19	0.975 ± 0.13	0.921 ± 0.1
UniProt Q14CX7 and related entries	1.09 ± 0.065	1.1 ± 0.086	1 ± 0.073	1.03 ± 0.091	0.984 ± 0.1	0.957 ± 0.041	0.958 ± 0.1	0.895 ± 0.15
UniProt Q5GLZ8 and related entries	1.07 ± 0.094	1.12 ± 0.07	1 ± 0.1	1.01 ± 0.038	1.01 ± 0.037	0.983 ± 0.058	0.948 ± 0.074	0.911 ± 0.063
UniProt Q5FBB7 and related entries	0.94 ± 0.048	0.948 ± 0.081	1.02 ± 0.11	1.09 ± 0.062	0.995 ± 0.085	1.03 ± 0.089	1.02 ± 0.069	1.03 ± 0.14
UniProt Q3KQU3 and related entries	1.12 ± 0.049	1.08 ± 0.048	1.24 ± 0.098	1.3 ± 0.054	1.35 ± 0.17	1.34 ± 0.14	1.43 ± 0.23	1.46 ± 0.25
UniProt Q49A26 and related entries	1.044 ± 0.0023	1.06 ± 0.036	1.15 ± 0.03	1.27 ± 0.028	1.52 ± 0.16	1.72 ± 0.026	1.97 ± 0.078	2.27 ± 0.094
KIF22 (UniProt Q14807)	1.1 ± 0.038	1.12 ± 0.064	1.13 ± 0.038	1.11 ± 0.058	1.17 ± 0.085	1.21 ± 0.076	1.21 ± 0.1	1.19 ± 0.12
TP53I3 (UniProt Q53FA7)	0.948 ± 0.083	0.946 ± 0.1	0.954 ± 0.086	0.926 ± 0.11	0.946 ± 0.077	0.91 ± 0.11	0.94 ± 0.089	0.947 ± 0.077
UniProt Q5K651 and related entries	1.04 ± 0.017	1.07 ± 0.021	0.998 ± 0.025	1.01 ± 0.062	0.968 ± 0.083	0.959 ± 0.047	0.985 ± 0.045	0.949 ± 0.088

Single records (already shown).
UniProt Q15056 and related entries as listed: NP40-soluble protein abundance (concentration: 0.1mM): 0.879 ± 0.047; NP40-soluble protein abundance (concentration: 0.5mM): 0.887 ± 0.077; NP40-soluble protein abundance (concentration: 1mM): 0.924 ± 0.06; NP40-soluble protein abundance (concentration: 2mM): 0.909 ± 0.091; NP40-soluble protein abundance (concentration: 4mM): 0.876 ± 0.081; NP40-soluble protein abundance (concentration: 6mM): 0.894 ± 0.076; NP40-soluble protein abundance (concentration: 8mM): 0.892 ± 0.078; NP40-soluble protein abundance (concentration: 10mM): 0.944 ± 0.064
TP53I3 (UniProt Q53FA7) as listed: NP40-soluble protein abundance (concentration: 0.1mM): 0.948 ± 0.083; NP40-soluble protein abundance (concentration: 0.5mM): 0.946 ± 0.1; NP40-soluble protein abundance (concentration: 1mM): 0.954 ± 0.086; NP40-soluble protein abundance (concentration: 2mM): 0.926 ± 0.11; NP40-soluble protein abundance (concentration: 4mM): 0.946 ± 0.077; NP40-soluble protein abundance (concentration: 6mM): 0.91 ± 0.11; NP40-soluble protein abundance (concentration: 8mM): 0.94 ± 0.089; NP40-soluble protein abundance (concentration: 10mM): 0.947 ± 0.077
